According to publication PMC10499915 (Scientific Reports, 2023):
Square brackets hold non-standard residues; d marks the D form. Peptide text beside a SMILES is read from it. * marks the point of attachment. Palmitoyl = CCCCCCCCCCCCCCCC(=O)*; Lauroyl = CCCCCCCCCCCC(=O)*; Octanoyl = CCCCCCCC(=O)*; Aun = NCCCCCCCCCCC(=O)O; Aib = CC(C)(N)C(=O)O

Tests used:
[1] = tested on: ram red blood cells (RBCs); conditions: MHC = lowest concentration inducing 10% haemolysis of RBCs; ratio to MIC on at least five out of six bacterial species
Experimental: The lytic potential towards eukaryotic cell membranes was assessed by measuring the release of haemoglobin from commercial ram red blood cells (RBCs) (Microbiol s.r.l., Cagliari, Italy) after exposure to the peptides. First, erythrocytes were isolated by centrifugation, washed with PBS and then suspended at 8% (v/v) in PBS. Secondly, 100 µL erythrocytes suspension was added into each well of a 96-well microplate. Then, 100 µL peptide solution was added to each well at different concentrations (the final concentration of erythrocytes suspension was 4% v/v), and the plates were incubated for 1 h at 37 °C and centrifuged at 1000 g for 10 min. Finally, 100 µL aliquots of supernatant were transferred to fresh 96-well microplate, and the release of haemoglobin was monitored by measuring the absorbance at 540 nm with Tecan microplate reader (Tecan Trading AG, Switzerland). 0% and 100% haemolysis were determined in PBS and 1% Triton X-100, respectively.

HaCaT cell line = assay: MTT cytotoxicity assay on HaCaT cells; conditions: ratio between cytotoxicity (HaCaT IC50, 50% reduction of viability) and MIC on at least five out of six bacterial species

Compound	Minimum selectivity index MHC/MIC [1]	Minimum selectivity index IC50 /MIC (HaCaT cell line)
CCCCCCCC(=O)N[C@@H](CCCCN)C(=O)N[C@@H](CCCNC(=N)N)C(=O)N[C@@H](CC(C)C)C(=O)N[C@@H](CCCCN)C(=O)N[C@@H](CCCCN)C(=O)N[C@H](C(=O)NCC(=O)N[C@@H](CCCCN)C(=O)N[C@H](C(=O)N[C@@H](CC(C)C)C(=O)N[C@@H](CCCCN)C(=O)N[C@@H](Cc1c[nH]c2ccccc12)C(=O)N[C@H](C(=O)N[C@@H](C)C(=O)N[C@@H](CCCCN)C(=O)N[C@H](C(=O)N[C@H](C(=O)NCC(=O)N[C@@H](CO)C(=O)N[C@H](C(N)=O)[C@@H](C)CC)C(C)C)[C@@H](C)CC)[C@@H](C)CC)C(C)C)[C@@H](C)CC [c] (Octanoyl-KRLKKIGKVLKWIAKIVGSI-NH2)	< 0.5	≤ 1.6
CCCCCCCCCCCC(=O)N[C@@H](CCCCN)C(=O)N[C@@H](CCCNC(=N)N)C(=O)N[C@@H](CC(C)C)C(=O)N[C@@H](CCCCN)C(=O)N[C@@H](CCCCN)C(=O)N[C@H](C(=O)NCC(=O)N[C@@H](CCCCN)C(=O)N[C@H](C(=O)N[C@@H](CC(C)C)C(=O)N[C@@H](CCCCN)C(=O)N[C@@H](Cc1c[nH]c2ccccc12)C(=O)N[C@H](C(=O)N[C@@H](C)C(=O)N[C@@H](CCCCN)C(=O)N[C@H](C(=O)N[C@H](C(=O)NCC(=O)N[C@@H](CO)C(=O)N[C@H](C(N)=O)[C@@H](C)CC)C(C)C)[C@@H](C)CC)[C@@H](C)CC)C(C)C)[C@@H](C)CC [d] (Lauroyl-KRLKKIGKVLKWIAKIVGSI-NH2)	≤ 0.1	< 0.2
CCCCCCCCCCCCCCCC(=O)N[C@@H](CCCCN)C(=O)N[C@@H](CCCNC(=N)N)C(=O)N[C@@H](CC(C)C)C(=O)N[C@@H](CCCCN)C(=O)N[C@@H](CCCCN)C(=O)N[C@H](C(=O)NCC(=O)N[C@@H](CCCCN)C(=O)N[C@H](C(=O)N[C@@H](CC(C)C)C(=O)N[C@@H](CCCCN)C(=O)N[C@@H](Cc1c[nH]c2ccccc12)C(=O)N[C@H](C(=O)N[C@@H](C)C(=O)N[C@@H](CCCCN)C(=O)N[C@H](C(=O)N[C@H](C(=O)NCC(=O)N[C@@H](CO)C(=O)N[C@H](C(N)=O)[C@@H](C)CC)C(C)C)[C@@H](C)CC)[C@@H](C)CC)C(C)C)[C@@H](C)CC [e] (Palmitoyl-KRLKKIGKVLKWIAKIVGSI-NH2)	< 0.2	< 0.2
CC[C@H](C)[C@H](NC(=O)[C@H](CO)NC(=O)CNC(=O)[C@@H](NC(=O)[C@@H](NC(=O)[C@H](CCCCN)NC(=O)[C@H](C)NC(=O)[C@@H](NC(=O)[C@H](Cc1c[nH]c2ccccc12)NC(=O)[C@H](CCCCN)NC(=O)[C@H](CC(C)C)NC(=O)[C@@H](NC(=O)[C@H](CCCCN)NC(=O)CNC(=O)[C@@H](NC(=O)[C@H](CCCCN)NC(=O)[C@H](CCCCN)NC(=O)[C@H](CC(C)C)NC(=O)[C@H](CCCNC(=N)N)NC(=O)[C@H](CCCCN)NC(C)=O)[C@@H](C)CC)C(C)C)[C@@H](C)CC)[C@@H](C)CC)C(C)C)C(=O)NCCCCCCCCCCC(N)=O [f] (Ac-KRLKKIGKVLKWIAKIVGSI[Aun]-NH2)	< 0.5	< 1
CC[C@H](C)[C@H](NC(=O)[C@H](Cc1c[nH]c2ccccc12)NC(=O)[C@H](CCCCN)NC(=O)C(C)(C)NC(=O)[C@@H](NC(=O)[C@H](CCCCN)NC(=O)CNC(=O)[C@@H](NC(=O)[C@H](CCCCN)NC(=O)[C@H](CCCCN)NC(=O)[C@H](CC(C)C)NC(=O)[C@H](CCCNC(=N)N)NC(=O)[C@H](CCCCN)NC(C)=O)[C@@H](C)CC)C(C)C)C(N)=O [h] (Ac-KRLKKIGKV[Aib]KWI-NH2)	> 4	≥ 6.8
Ac-KRLKKIGKVLKWI-NH2 [g]	> 4	> 8
Ac-KRLKKIGKVLKWIAKIVGSI-NH2 [b]	≥ 1	≥ 1.6
Ac-KRLKKIGKVLKWIPPIVGSI-NH2 [a]	> 8	> 16
